Reference: US20030091557A1, “Methods and compositions for modulating ACE-2 activity” (priority 2001, published 2003)
Results are given in words; binding and its absence hold for the method and conditions named. Some results given as binding are weak or reduced against the parent protein; the word gives no strength.

B1: ACE-2 binding polypeptide … (Sequence Family I) (peptide)
peptide: NPECGALFCMEF
B2: ACE-2 binding polypeptide … (Sequence Family X) (peptide)
peptide: GFTCSPIRMFPWFRCDLG
B3: ACE-2 binding polypeptide … (Sequence Family X) (peptide)
peptide: FSPCKALRHSPWWVCPSG
B4: ACE-2 binding polypeptide … (Sequence Family I) (peptide)
peptide: DFGCNAMFCVEF
B5: ACE-2 binding polypeptide … (Sequence Family I) (peptide)
peptide: DQNCFAMYCFEF
B6: ACE-2 binding polypeptide … (Sequence Family I) (peptide)
peptide: NDYCTVFTGALFCLDF
B7: ACE-2 binding polypeptide … (Sequence Family I) (peptide)
peptide: PNQCGVDIWALFCVDF
B8: ACE-2 binding polypeptide … (Sequence Family II) (peptide)
peptide: EGNCFLIGPWCFEF
B9: ACE-2 binding polypeptide … (Sequence Family II) (peptide)
peptide: HIECEEWGYWCIEM
B10: ACE-2 binding polypeptide … (Sequence Family II) (peptide)
peptide: WEDCLWIGMMCVEF
B11: ACE-2 binding polypeptide … (Sequence Family II) (peptide)
peptide: YEDCIGHALFCMTF
B12: ACE-2 binding polypeptide … (Sequence Family II) (peptide)
peptide: DDKCFGWAHFCFDF
B13: ACE-2 binding polypeptide … (Sequence Family II) (peptide)
peptide: GGQCGTSYLFCIDF
B14: ACE-2 binding polypeptide … (Sequence Family II) (peptide)
peptide: YSGCADMYMFCIDF
B15: ACE-2 binding polypeptide … (Sequence Family II) (peptide)
peptide: KFECMPSSLFCVDF
B16: ACE-2 binding polypeptide … (Sequence Family II) (peptide)
peptide: DDYCFNISSYSYCFDF
B17: ACE-2 binding polypeptide … (Sequence Family II) (peptide)
peptide: LHDCFIYADYEYCFDF
B18: ACE-2 binding polypeptide … (Sequence Family II) (peptide)
peptide: NHHCLEFSSFEYCFDF
B19: ACE-2 binding polypeptide … (Sequence Family II) (peptide)
peptide: DNLCMSGGSFDYCFDF
B20: ACE-2 binding polypeptide … (Sequence Family II) (peptide)
peptide: SDYCVGNNAVTYCFDF
B21: ACE-2 binding polypeptide … (Sequence Family II) (peptide)
peptide: NLDCIYLQNHSYCFDF
B22: ACE-2 binding polypeptide … (Sequence Family II) (peptide)
peptide: DDDCMMLPLTMFCFDF
B23: ACE-2 binding polypeptide … (Sequence Family II) (peptide)
peptide: YDNCLGLANLNFCFDF
B24: ACE-2 binding polypeptide … (Sequence Family II) (peptide)
peptide: HLDCYNLVDNMFCFDF
B25: ACE-2 binding polypeptide … (Sequence Family II) (peptide)
peptide: NWNCLGTNELQFCLDF
B26: ACE-2 binding polypeptide … (Sequence Family II) (peptide)
peptide: YFACTNNDSYLFCLDF
B27: ACE-2 binding polypeptide … (Sequence Family II) (peptide)
peptide: YNFCMLIGERDYCLDF
B28: ACE-2 binding polypeptide … (Sequence Family II) (peptide)
peptide: DDVCYSLIMADYCLDF
B29: ACE-2 binding polypeptide …- (Sequence Family III) (peptide)
peptide: DDMCRWYPFASFYMCLF
B30: ACE-2 binding polypeptide … (Sequence Family III) (peptide)
peptide: DDHCEWASYWKWDLCLHD
B31: ACE-2 binding polypeptide … (Sequence Family III) (peptide)
peptide: DDVCENADFAWLGWCMHF
B32: ACE-2 binding polypeptide … (Sequence Family III) (peptide)
peptide: DDDCGWIGFANFHLCLHG
B33: ACE-2 binding polypeptide … (Sequence Family III) (peptide)
peptide: FDDCQTSWFQGFWLCIDD
B34: ACE-2 binding polypeptide … (Sequence Family III) (peptide)
peptide: FHDCSWGPWGPWEICTRL
B35: ACE-2 binding polypeptide … (Sequence Family III) (peptide)
peptide: SNDCVWLQFWGGDMCFLP
B36: ACE-2 binding polypeptide … (Sequence Family III) (peptide)
peptide: NADCEWVNFNHVDLCMWN
B37: ACE-2 binding polypeptide … (Sequence Family III) (peptide)
peptide: GSDCEWVNFTMFQMCISN
B38: ACE-2 binding polypeptide … (Sequence Family III) (peptide)
peptide: AWDCEWNLFDSTFFCPGF
B39: ACE-2 binding polypeptide … (Sequence Family III) (peptide)
peptide: LYECEWKQFGPVEMCLNF
B40: ACE-2 binding polypeptide … (Sequence Family I) (peptide)
peptide: NRECHALFCMDF
B41: ACE-2 binding polypeptide … (Sequence Family III) (peptide)
peptide: HSECRWEWFGRTMICMSF
B42: ACE-2 binding polypeptide … (Sequence Family III) (peptide)
peptide: SGECNWQQFSGWEICLRD
B43: ACE-2 binding polypeptide … (Sequence Family III) (peptide)
peptide: AYLCDWILFDSFEMCLAP
B44: ACE-2 binding polypeptide … (Sequence Family III) (peptide)
peptide: PFECDWGPWTLEMLCGPP
B45: ACE-2 binding polypeptide … (Sequence Family IV) (peptide)
peptide: RGHCRDSRCMMNAPG
B46: ACE-2 binding polypeptide … (Sequence Family IV) (peptide)
peptide: RIGCRDSRCNWWAPG
B47: ACE-2 binding polypeptide … (Sequence Family IV) (peptide)
peptide: RGFCRDSSCSFP
B48: ACE-2 binding polypeptide … (Sequence Family IV) (peptide)
peptide: RGWCLDSRCKVF
B49: ACE-2 binding polypeptide … (Sequence Family IV) (peptide)
peptide: FLFCRLASRDSRCASP
B50: ACE-2 binding polypeptide … (Sequence Family IV) (peptide)
peptide: FNPCRLQSRDSACRFR
B51: ACE-2 binding polypeptide … (Sequence Family I) (peptide)
peptide: SPTCRALFCVDF
B52: ACE-2 binding polypeptide … (Sequence Family IV) (peptide)
peptide: FFPCRALEKDSRCSFF
B53: ACE-2 binding polypeptide … (Sequence Family IV) (peptide)
peptide: HFSCRLPSLDSRCQLW
B54: ACE-2 binding polypeptide … (Sequence Family V) (peptide)
peptide: NDVCLNDDCVYG
B55: ACE-2 binding polypeptide … (Sequence Family V) (peptide)
peptide: WPTCLTMDCVYN
B56: ACE-2 binding polypeptide … (Sequence Family V) (peptide)
peptide: HYNCHTNDCVVL
B57: ACE-2 binding polypeptide … (Sequence Family V) (peptide)
peptide: HLRCMTSDCIHF
B58: ACE-2 binding polypeptide … (Sequence Family VI) (peptide)
peptide: WVLCFEWEDCDEK
B59: ACE-2 binding polypeptide … (Sequence Family VI) (peptide)
peptide: YEYCFEWEQCWEK
B60: ACE-2 binding polypeptide … (Sequence Family VI) (peptide)
peptide: GIFCFEWETCYQA
B61: ACE-2 binding polypeptide …-- (Sequence Family VI) (peptide)
peptide: PQFCFEWEPCF
B62: ACE-2 binding polypeptide … (Sequence Family I) (peptide)
peptide: SENCQALFCVDF
B63: ACE-2 binding polypeptide … (Sequence Family VI) (peptide)
peptide: IGFCFEWEVCYEG
B64: ACE-2 binding polypeptide … (Sequence Family VI) (peptide)
peptide: YDWCFDWEQCWDQ
B65: ACE-2 binding polypeptide … (Sequence Family VI) (peptide)
peptide: VGFCFDWEPCDEL
B66: ACE-2 binding polypeptide … (Sequence Family VI) (peptide)
peptide: MDFCFDWEECWTN
B67: ACE-2 binding polypeptide … (Sequence Family VI) (peptide)
peptide: NIFCFDWEPCHFG
B68: ACE-2 binding polypeptide … (Sequence Family VI) (peptide)
peptide: FEICFDWEVCHEQ
B69: ACE-2 binding polypeptide … (Sequence Family VI) (peptide)
peptide: DYLCFDWEACWLS
B70: ACE-2 binding polypeptide … (Sequence Family VI) (peptide)
peptide: YAMCFDWDECFLG
B71: ACE-2 binding polypeptide … (Sequence Family VI) (peptide)
peptide: YQFCFDWETTCWLD
B72: ACE-2 binding polypeptide … (Sequence Family VI) (peptide)
peptide: VYFCFDWEQDCDEM

These binders were tested against FLAG-tagged ACE-2 (human) (UniProt Q9BYF1) (assay: phage ELISA, FLAG-ACE-2 on anti-FLAG antibody plate).
In the case of B1, the binding is reported as “binds”.
With B2 the binding was “binds”.
B3 was tested, and the binding was “binds”.
B4 was tested, and the binding was “binds”.
For B5, the binding was “binds”.
In the case of B6, the binding is reported as “binds”.
With B7 the binding was “binds”.
For B8, the binding was “binds”.
For B9, the binding was “binds”.
With B10 the binding was “binds”.
With B11 the binding was “binds”.
For B12, the binding was “binds”.
In the case of B13, the binding is reported as “binds”.
With B14 the binding was “binds”.
B15 was tested, and the binding was “binds”.
In the case of B16, the binding is reported as “binds”.
For B17, the binding was “binds”.
In the case of B18, the binding is reported as “binds”.
With B19 the binding was “binds”.
With B20 the binding was “binds”.
In the case of B21, the binding is reported as “binds”.
With B22 the binding was “binds”.
In the case of B23, the binding is reported as “binds”.
B24 was tested, and the binding was “binds”.
For B25, the binding was “binds”.
B26 was tested, and the binding was “binds”.
B27 was tested, and the binding was “binds”.
With B28 the binding was “binds”.
B29 was tested, and the binding was “binds”.
For B30, the binding was “binds”.
With B31 the binding was “binds”.
B32 was tested, and the binding was “binds”.
B33 was tested, and the binding was “binds”.
B34 was tested, and the binding was “binds”.
With B35 the binding was “binds”.
For B36, the binding was “binds”.
With B37 the binding was “binds”.
For B38, the binding was “binds”.
In the case of B39, the binding is reported as “binds”.
B40 was tested, and the binding was “binds”.
With B41 the binding was “binds”.
B42 was tested, and the binding was “binds”.
For B43, the binding was “binds”.
With B44 the binding was “binds”.
For B45, the binding was “binds”.
For B46, the binding was “binds”.
In the case of B47, the binding is reported as “binds”.
In the case of B48, the binding is reported as “binds”.
For B49, the binding was “binds”.
For B50, the binding was “binds”.
In the case of B51, the binding is reported as “binds”.
In the case of B52, the binding is reported as “binds”.
B53 was tested, and the binding was “binds”.
With B54 the binding was “binds”.
B55 was tested, and the binding was “binds”.
For B56, the binding was “binds”.
B57 was tested, and the binding was “binds”.
For B58, the binding was “binds”.
In the case of B59, the binding is reported as “binds”.
B60 was tested, and the binding was “binds”.
In the case of B61, the binding is reported as “binds”.
B62 was tested, and the binding was “binds”.
For B63, the binding was “binds”.
In the case of B64, the binding is reported as “binds”.
In the case of B65, the binding is reported as “binds”.
For B66, the binding was “binds”.
With B67 the binding was “binds”.
With B68 the binding was “binds”.
In the case of B69, the binding is reported as “binds”.
In the case of B70, the binding is reported as “binds”.
In the case of B71, the binding is reported as “binds”.
In the case of B72, the binding is reported as “binds”.
